# Results from one PubChem assay

From PubChem BioAssay record AID1159506 (NCATS, 2015).

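Genome-wide siRNA knockdown in TC32 Ewing sarcoma cells, comparing luciferase light from an NR0B1-promoter reporter with a CMV-promoter reporter 48 hours after transfection.
Each siRNA was applied at 20 nM.
A z-score of the log NR0B1-over-CMV signal, less the median of siRNAs with the same seed; more negative means a stronger specific loss of the NR0B1 reporter.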

This is part of the screen; most of the strongest results are not listed here.
Sequences are the guide (antisense) strand, without overhang.

| strand | target gene | seed-corrected z-score |
|---|---|---|
| `UCGCUGGAAAUUUCAAUGC` | GABRP | -0.04978 |
| `AUAUGGACAACCCAUUUCC` | CYSLTR2 | 1.038 |
| `UCAGAUCCUCGGAUUCUUC` | RPLP1P5 | -1.521 |
| `UAUGCACCUUCUCCAGACC` | ANGPTL4 | 0.5049 |
| `ACAGAACCAACGAUAAUGC` | OR4N5 | -0.2098 |
| `UCUCUGCUUGGUCACUUUG` | SF3A2 | -0.3794 |
| `UGGGCUAUCACUACCAUCC` | FOXJ3 | -1.075 |
| `AAAGGCACUAUCCUGCUCC` | PML | 0.5627 |
| `UACUGCGAGAGAUUAUUGC` | TP73 | -0.1231 |
| `AUGAUACCAUCCUUCAGCG` | CD79B | 0.965 |
| `AAACGGUUCAGAAAUCUGU` | PEBP4 | 0.4903 |
| `UUGGAGGCUUGGGACAUGG` | ROPN1L | 1.319 |
| `UUUGAUCCAUGUUGUUACC` | NTF3 | -0.176 |
| `AGACUUGUAGGUUCUCCGC` | LDOC1L | -0.04999 |
| `AGCUUCUUGAGAUAAAACC` | HSPB3 | -0.1708 |
| `UCAUCCAUGAAGACCAGGG` | GCAT | 0.03199 |
| `UACCAUAUUUCUUCAAUAC` | KDM4C | 0.5427 |
| `UGCUGAACAACUGCUGAAG` | CHSY3 | -0.7582 |
| `UCGAUAUCCAGGUGAUUGG` | ABCF2 | 0.02537 |
| `AAAGGUAAAAUGCACCUUC` | SLIRP | 1.059 |
| `UUCGGUACUGAUCUAGUAG` | MAN2A1 | 1.066 |
| `ACAGGAACUGUUGUCGCUG` | SCAMP2 | -0.4411 |
| `AUACUGUUCCAGAAGUAGC` | METTL5 | 0.1705 |
| `UUCAGUAACCGCGUGGUUC` | SH2D5 | 0.9828 |
| `UGACUAUCAAAUUGUACAG` | MREG | 0.154 |
| `AUAGCAUUCCUCAUGAUGU` | UCP3 | 0.9118 |
| `UCAUUUAAACCUGUGGUUG` | XAGE3 | 0.4706 |
| `AAGUCUCUCACGUCCACCG` | HSPB7 | 0.04279 |
| `UUAACGUGCAUCUCCACCC` | RDH5 | -0.6408 |
| `AACAGUACACGCAUUCAUG` | MIIP | -0.7721 |
| `UCUUGUAGUCCAAGAAUCC` | GLB1L2 | -0.2974 |
| `UCUGCAGGCAGCAACAUCC` | C2orf72 | 1.234 |
| `UCGGACAACCUGAAGCUCC` | RPUSD3 | -0.04019 |
| `UCACCGUCAUAUUCCAGGG` | SLC44A4 | 0.2232 |
| `UGUGCUAAGACUCUUCGCC` | ASPM | -0.3876 |
| `AGUGUUAUCCCAUUUGUCU` | GYPE | 1.43 |
| `AGAAGAAUAAAAGGUGUCA` | OR4C3 | 0.3275 |
| `UAUACUGGAACCAUUAUAG` | RFWD2 | -0.4379 |
| `UAUGGUCCCAACUCGGUCC` | TPD52L2 | 0.1396 |
| `UACUGGGUGCAGAAUAUGC` | FAM124A | 0.2504 |
| `UUUUGGGACAGGUCCUUGG` | BSDC1 | 0.003522 |
| `UCUUUCAUAUCAUUCAGUC` | RHOQ | -0.4335 |
| `AUAGACGAAUGGACGAUUU` | PGAM5 | 0.1863 |
| `UAGGCUCACAGUUUUUCAG` | MRPS7 | 0.6441 |
| `AUAGUGGUGAAUCUUGAGG` | OVGP1 | -0.7383 |
| `UAUUGUAGUAGCGACAGAC` | SLCO2B1 | 1.016 |
| `UUAUCAUAGAGAGUUUUAC` | TAS2R42 | -0.4441 |
| `UCACGUAACAUUCACUCUC` | GRAMD1B | 0.9502 |
| `UGUGCAGCAGAUACAUUCC` | MPTX1 | -1.351 |
| `UAAGCUAUAAGAGAGUUGA` | ASB9 | 0.3078 |
| `UUGGAGUAAUGUUAGUAGC` | FOLH1 | -0.1256 |
| `UCCGUAUACAGCAUCAGUC` | ZGRF1 | 0.8891 |
| `AUCGGAUAGGUGAAGCUGC` | KLF4 | 0.4198 |
| `UCUGAGUAUUCUGUUGUUG` | PHF10 | -0.2939 |
| `AUUGUUCUUGGACUGAUUC` | GNRHR | -0.2258 |
| `UUCGUGACUAAAUAGAAGC` | AKAP9 | -0.099 |
| `AGAUUAGUAAUAGAUGUGC` | FAM3C | 0.9529 |
| `AAGUGUAUCCAAGACCUUC` | POMK | -0.1401 |
| `UUCCUGAAAGUCAUUGCGC` | KBTBD6 | 0.07897 |
| `UUCCGUUACCUGACUAACG` | WLS | 0.5243 |
| `UUCAUGAAAGUAGCUGACU` | NFAM1 | 0.2915 |
| `UCCAGUGCACGGUUCAUCU` | PIGQ | -0.9402 |
| `AAACGUGCGAAGGUCUCUG` | DNAAF3 | -1.09 |
| `AAAGGUACUUGAAUCCGUC` | AMFR | 0.04263 |
| `UCCUUUUCUCGUUUCAUCC` | EFCAB8 | -0.4301 |
| `UCUCCAUGAAGACAUGCUC` | LOC441722 | 0.2351 |
| `UAUUGGUGACUUUUGCGUG` | LOC642452 | -0.4469 |
| `UACGAAUAAACAUAGGCAG` | VPS13B | 0.035 |
| `UGCGUUUUCACUGUCGUGC` | ITPR1 | 0.5079 |
| `UGUGAUCAGACAUAUGUCC` | GLOD5 | 1.322 |

6 of the entries, repeated:

- AUAUGGACAACCCAUUUCC against CYSLTR2 | seed-corrected z-score 1.038
- UUUGAUCCAUGUUGUUACC against NTF3 | seed-corrected z-score -0.176
- UGCUGAACAACUGCUGAAG against CHSY3 | seed-corrected z-score -0.7582
- AGCUUCUUGAGAUAAAACC against HSPB3 | seed-corrected z-score -0.1708
- UGUGAUCAGACAUAUGUCC against GLOD5 | seed-corrected z-score 1.322
- AGACUUGUAGGUUCUCCGC against LDOC1L | seed-corrected z-score -0.04999